The assay is described as follows: qHTS Assay for Lipid Storage Modulators in Drosophila S3 Cells.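 As to cell number change: cells counted by Cell Tracker Red CMTPX staining in the red channel.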 The note with it: BODIPY lipid droplet fluorescence, 18-24 h; for cell number change: measured here: cell count max response, cells fed with added oleic acid. The gist of the method:
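Drosophila S3 cells got compounds at several concentrations plus oleic acid (400 uM solution). Laser-scanning cytometry with 488 nm excitation read lipid droplets at 500-530 nm and cells at 575-640 nm. Percent activity was relative to 20 uM Triacsin C.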
For orientation: Quantitative high-throughput screening tests each substance at several concentrations.

Setting [1] is: measured here: cell number channel AC50, cells fed with added oleic acid.
[2] abbreviates: measured here: lipid fluorescence (Fed channel) AC50, cells fed with added oleic acid.

These results are taken from PubChem BioAssay AID2685 (National Center for Advancing Translational Sciences (NCATS), 2010).

Some of the results follow. Further columns of the screen follow, without active or inactive calls. Compounds called inactive in the main read-out are mostly missing here. Words in brackets tell the shape of the fitted curve; partial curves, single points and poor fits give uncertain potencies.

As usually defined, the AC50 is the concentration at which the activity in the assay is half-maximal. For the molecule `CN1CCN(c2ccccc2NC(=O)c2sc3ccccc3c2Cl)CC1`, the cell number change was -30.7%. The AC50 under setting [1] is 29.1 µM [falling, partial curve, poor fit]. The AC50 under setting [2] was 0.146 µM [falling, full curve, poor fit].

For the molecule `O=C1OCCC/C1=C\c1ccc2c(c1)OCO2`, the cell number change was 32.3%. Besides, the AC50 under setting [1] was 23.1 µM [rising, single point].

With `S=C(Nc1cccc(Br)c1)c1ccccc1`, the cell number change is 8.39%. Besides, the AC50 under setting [2] is 29.1 µM [rising, single point].

`COC(=O)c1c(NC(=O)C(C)C)sc(C(=O)N2CCOCC2)c1C`: the cell number change is -3.95%. Under setting [2], the concentration at half-maximal activity (AC50) is 0.1 µM [falling, full curve, poor fit].

`C=CCOc1nc2c(c(=O)n(C)c(=O)n2C)n1Cc1ccc(Cl)cc1Cl`: the AC50 under setting [1] is 0.231 µM [rising, full curve].

Consider `CCOC(=O)N1CCC(N(CCN(C)C)C(=S)Nc2ccc(F)c(Cl)c2)CC1`, for which the cell number change came to 50.1%. Further, the AC50 under setting [1] is 29.1 µM [rising, partial curve, poor fit]. Further, the AC50 under setting [2] was 29.1 µM [rising, single point].

Turning to `COc1cc2[nH]c(C(=O)N3CCC(Cc4ccccc4)CC3)cc2c(OC)c1OC`, the AC50 under setting [2] was 0.58 µM [rising, single point].

For the molecule `COc1ccc(Cl)cc1NC(=O)C1CCCO1` (stereo not drawn), the cell number change turned out to be 4.21%.

As to `C=C(C)Cn1c(=O)c2c(nc3n2CC(C)CN3Cc2ccccc2)n(C)c1=O` (stereo not drawn), the cell number change was found to be 6.12%. In addition, under setting [2], the concentration at half-maximal activity (AC50) is 2.31 µM [rising, single point].

As to `CCOC(=O)c1ccccc1NC(=O)/C=C/c1cc(OC)c(OC)c(OC)c1`, the cell number change came out at 12.2%. The AC50 under setting [2] was 0.58 µM [rising, single point].

As to `Cc1ccccc1NCN1C(=O)C2C3C=CC(C3)C2C1=O` (stereo not drawn), the cell number change was found to be 3.9%. Further, the AC50 under setting [2] is 1.46 µM [falling, full curve, poor fit].

As for `CC(C)C(=O)NC(c1cccc([N+](=O)[O-])c1)c1ccc2cccnc2c1O` (stereo not drawn), the cell number change was -21.2%. Besides, the AC50 under setting [2] is 29.1 µM [falling, single point].

Turning to `O=C(Cc1ccccc1[N+](=O)[O-])NCCCc1ccccc1`, the cell number change was 17.3%. Further, the AC50 under setting [2] is 29.1 µM [rising, single point].

As for `Cc1ccc(N2C(=O)C3CC(c4ccccc4)=C4C5C=CC(C6C(=O)N(c7ccc(C)cc7C)C(=O)C56)C4C3C2=O)c(C)c1` (stereo not drawn), the AC50 was 1.64 µM [rising, partial curve, poor fit] under setting [1] and 1.46 µM [rising, partial curve] under setting [2].

On to `CC(=O)N1CCOc2cc(S(=O)(=O)Nc3c(C)cccc3C(C)C)c(Cl)cc21`, for which the cell number change was 10.4%. Moreover, under setting [2], the AC50 is 0.164 µM [rising, full curve, poor fit].

On to `COc1ccc(N=c2cc(-c3ccc(OC)cc3)oc3ccccc23)cc1`, for which the cell number change was -52.8%. The AC50 under setting [1] was 23.1 µM [falling, single point]. In addition, the AC50 under setting [2] is 29.1 µM [falling, single point].

Turning to `Cc1ccccc1Cn1c(=O)n(C)c(=O)c2sccc21`, the cell number change is -36%.

For `CCOC(=O)C1=C(C)N(c2ccccc2)C(=O)/C1=C\c1ccc(O)c(OC)c1`, the cell number change is -51.8%. Further, the AC50 under setting [1] is 16.4 µM [falling, single point]. Besides, the AC50 under setting [2] is 25.9 µM [falling, single point].

Consider `COc1ccc(Nc2nc(-c3ccccc3)cs2)cc1`, for which the cell number change was 20.6%. Besides, the AC50 under setting [1] was 0.92 µM [rising, full curve]. Under setting [2], the AC50 is 1.03 µM [rising, full curve].

For the molecule `O=C(Nc1cccnc1)NC1CCCCC1`, the cell number change is -19%. Further, the AC50 under setting [2] was 5.17 µM [falling, single point].

Turning to `O=C(c1ccc(-c2ccccc2)c(F)c1)C1CCCN(C(=O)c2cncs2)C1` (stereo not drawn), the cell number change was -23.1%. In addition, the concentration at half-maximal activity (AC50) under setting [2] is 29.1 µM [falling, single point].

Consider `Oc1ccc(Cc2ncc(C(F)(F)F)cc2Cl)cc1`, for which the cell number change was found to be 3.13%. Further, under setting [1], the AC50 is 0.00517 µM [falling, full curve, poor fit]. The AC50 under setting [2] was 0.00517 µM [falling, full curve, poor fit].

As for `Cc1ccc2nc(-c3ccncc3)cc(C(=O)Nc3ccncc3)c2c1`, the cell number change was 7.11%. In addition, the AC50 under setting [1] is 7.31 µM [rising, partial curve, poor fit]. Besides, under setting [2], the AC50 was 0.259 µM [rising, full curve, poor fit].

With `CN(CC(=O)NCc1cccnc1)S(=O)(=O)c1cc(Cl)ccc1Cl`, the AC50 under setting [1] was 0.92 µM [rising, full curve].

Regarding `O=[N+]([O-])c1cccc(S(=O)(=O)N2CCN(S(=O)(=O)N3CCCCCC3)CC2)c1`, the cell number change was -0.451%.

For the molecule `Cc1ccc(-c2nc(CS(=O)CC(=O)N3CCN(c4ccc(F)cc4)CC3)c(C)o2)cc1` (stereo not drawn), the cell number change was -43.5%. For the same molecule, under setting [1], the AC50 is 29.1 µM [falling, single point].

On to `OCc1cccc(Nc2ncnc3sc4c(c23)CCCCC4)c1`, for which the cell number change worked out at 9.4%. In addition, the AC50 under setting [2] was 0.731 µM [rising, single point].

On to `O=C(NC1CCCCC1)c1cc(-c2ccc(F)cc2)on1`, for which the AC50 under setting [2] was 29.1 µM [falling, single point].

Regarding `Cc1nc(CSc2ccccc2)cc(=O)[nH]1`, the cell number change is -15.4%. Besides, under setting [1], the AC50 was 4.11 µM [falling, partial curve, poor fit]. In addition, the AC50 under setting [2] was 2.31 µM [falling, partial curve].

For `O=C1/C(=C/c2ccc(O)cc2)COc2ccccc21`, the cell number change came out at 5.56%. In addition, the AC50 under setting [2] was 0.731 µM [falling, full curve, poor fit].

Regarding `OCC1(Cc2ccc(F)cc2)CCCN(Cc2ccc(F)cc2Cl)C1` (stereo not drawn), the cell number change was -12.6%.

Turning to `COc1ccc2c(c1OC)C(=O)N1C2SC[C@H]1C(=O)NC1CC(C)(C)NC(C)(C)C1` (stereo partly drawn), the cell number change was -37.4%. Under setting [1], the AC50 was 20.6 µM [falling, single point]. Moreover, the AC50 under setting [2] is 29.1 µM [falling, single point].

For `Cc1cc(N2CCCCC2)nc(N2CCCCC2)n1`, the cell number change turned out to be 6.63%. Besides, under setting [2], the half-maximal activity concentration (AC50) was 1.03 µM [rising, single point].

On to `NC(=O)COc1ccc(NC(=O)OCc2ccccc2)cc1`, for which the cell number change turned out to be 83.9%.

As to `O=C(COC(=O)c1ccc2ncsc2c1)Nc1cc([N+](=O)[O-])ccc1Cl`, the cell number change is -47.4%. Under setting [1], the AC50 is 10.3 µM [falling, partial curve]. The AC50 under setting [2] was 29.1 µM [falling, single point].

`COc1ccc(CN2C(=O)c3cccnc3C2=O)cc1S(=O)(=O)N1CCCCC1`: the AC50 under setting [2] is 11.6 µM [falling, single point].

Regarding `CSc1cccc(NC(=O)CN(C)S(=O)(=O)c2cnc[nH]2)c1`, the AC50 under setting [2] was 0.58 µM [rising, single point].
